Laboratory results reported in the M2OR odorant receptor database.
The entries are a selection whose mix differs from that of the whole data set. The calls were merged from several studies; some rest on single wells.

Experiments:
Conditions in all cases: stereoisomer not certain
OR13C2 (Homo sapiens) = biological target: T1, OR13C2 (Homo sapiens) (UniProt Q8NGS9)
T1 sequence (whole entry): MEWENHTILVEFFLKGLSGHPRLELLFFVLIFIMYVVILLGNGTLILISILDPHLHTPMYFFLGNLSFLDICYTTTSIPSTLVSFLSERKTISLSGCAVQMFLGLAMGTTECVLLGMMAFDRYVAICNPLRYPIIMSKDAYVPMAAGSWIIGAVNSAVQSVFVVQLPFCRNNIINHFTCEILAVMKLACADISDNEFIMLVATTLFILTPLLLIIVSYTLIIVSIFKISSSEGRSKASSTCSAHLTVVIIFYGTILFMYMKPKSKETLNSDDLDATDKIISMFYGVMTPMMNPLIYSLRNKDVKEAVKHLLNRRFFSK
Summary of the method: (§1)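 Assay methods differ from source to source, frequently being transient luciferase assays in mammalian cell lines. For each receptor–molecule pair, the label responsive (active) applies when the original authors judged the measured signal statistically different from baseline, and non-responsive (inactive) applies otherwise.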

OR13C3 (Homo sapiens) = biological target: T2, OR13C3 (Homo sapiens) (UniProt Q8NGS6)
T2 sequence (whole entry): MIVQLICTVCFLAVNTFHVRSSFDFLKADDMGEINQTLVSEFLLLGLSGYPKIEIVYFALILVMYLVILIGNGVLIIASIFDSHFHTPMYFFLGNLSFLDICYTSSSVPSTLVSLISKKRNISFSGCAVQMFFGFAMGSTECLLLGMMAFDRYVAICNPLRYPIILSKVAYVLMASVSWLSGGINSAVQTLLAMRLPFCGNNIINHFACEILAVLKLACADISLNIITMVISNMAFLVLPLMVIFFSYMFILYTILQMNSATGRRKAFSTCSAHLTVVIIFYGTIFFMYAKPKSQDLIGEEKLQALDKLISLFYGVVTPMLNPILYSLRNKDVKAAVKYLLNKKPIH
Summary of the method: as §1

OR13C4 (Homo sapiens) = biological target: T3, OR13C4 (Homo sapiens) (UniProt Q8NGS5)
T3 sequence (whole entry): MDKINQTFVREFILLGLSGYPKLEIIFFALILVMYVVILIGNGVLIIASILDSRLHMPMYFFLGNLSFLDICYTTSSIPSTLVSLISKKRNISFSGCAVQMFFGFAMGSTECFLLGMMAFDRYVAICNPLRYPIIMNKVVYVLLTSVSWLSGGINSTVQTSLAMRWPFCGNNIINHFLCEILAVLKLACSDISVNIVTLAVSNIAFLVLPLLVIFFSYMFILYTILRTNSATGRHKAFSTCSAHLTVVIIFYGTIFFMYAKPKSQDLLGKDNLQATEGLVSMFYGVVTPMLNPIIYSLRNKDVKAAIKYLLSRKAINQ
Summary of the method: as §1

OR13C8 (Homo sapiens) = biological target: T4, OR13C8 (Homo sapiens) (UniProt Q8NGS7)
T4 sequence (whole entry): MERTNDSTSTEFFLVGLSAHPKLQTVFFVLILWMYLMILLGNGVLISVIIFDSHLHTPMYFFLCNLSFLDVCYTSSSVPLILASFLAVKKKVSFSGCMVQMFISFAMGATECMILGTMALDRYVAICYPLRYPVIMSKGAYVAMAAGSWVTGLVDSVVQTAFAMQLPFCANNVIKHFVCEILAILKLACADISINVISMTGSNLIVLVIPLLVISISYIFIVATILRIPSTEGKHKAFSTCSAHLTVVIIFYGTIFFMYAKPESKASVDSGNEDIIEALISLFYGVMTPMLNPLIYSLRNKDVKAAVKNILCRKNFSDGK
Summary of the method: as §1

OR13H1 (Homo sapiens) = biological target: T5, OR13H1 (Homo sapiens) (UniProt Q8NG92)
T5 sequence (whole entry): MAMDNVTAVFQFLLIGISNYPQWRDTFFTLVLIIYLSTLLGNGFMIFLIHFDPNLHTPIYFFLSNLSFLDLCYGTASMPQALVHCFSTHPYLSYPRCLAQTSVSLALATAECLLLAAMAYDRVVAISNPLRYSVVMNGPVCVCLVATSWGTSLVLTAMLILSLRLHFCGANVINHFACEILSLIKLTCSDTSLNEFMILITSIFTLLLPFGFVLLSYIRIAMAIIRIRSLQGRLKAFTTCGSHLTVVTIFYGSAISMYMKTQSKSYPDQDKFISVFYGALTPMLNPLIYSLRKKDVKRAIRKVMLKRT
Summary of the method: as §1

Measured: odorant receptor agonist call

CC(C)(C)c1ccc(CCC=O)cc1
inactive: OR13C2 (Homo sapiens) | OR13C3 (Homo sapiens) | OR13C4 (Homo sapiens) | OR13C8 (Homo sapiens) | OR13H1 (Homo sapiens)

CC1=NC(C)SC1C (stereo not drawn)
inactive: OR13C3 (Homo sapiens) | OR13C4 (Homo sapiens) | OR13C8 (Homo sapiens) | OR13H1 (Homo sapiens)

CCC1(O)C2(C)CCC(C2)C1(C)C (stereo not drawn)
inactive: OR13C2 (Homo sapiens) | OR13C3 (Homo sapiens) | OR13C4 (Homo sapiens) | OR13C8 (Homo sapiens) | OR13H1 (Homo sapiens)

CCCCCCOC(=O)CCC
inactive: OR13C2 (Homo sapiens) | OR13C3 (Homo sapiens) | OR13C4 (Homo sapiens) | OR13C8 (Homo sapiens) | OR13H1 (Homo sapiens)

CC(=O)OCC=C(C)CCC=C(C)C
inactive: OR13C3 (Homo sapiens) | OR13C4 (Homo sapiens) | OR13C8 (Homo sapiens) | OR13H1 (Homo sapiens)
active: OR13C2 (Homo sapiens)

CC(=O)c1ccccc1
inactive: OR13C3 (Homo sapiens) | OR13C4 (Homo sapiens) | OR13C8 (Homo sapiens) | OR13H1 (Homo sapiens)

CCC=CCCO
inactive: OR13C2 (Homo sapiens) | OR13C3 (Homo sapiens) | OR13C4 (Homo sapiens) | OR13C8 (Homo sapiens) | OR13H1 (Homo sapiens)

CCCCCCCOC(C)=O
inactive: OR13C2 (Homo sapiens) | OR13C3 (Homo sapiens) | OR13C4 (Homo sapiens) | OR13C8 (Homo sapiens) | OR13H1 (Homo sapiens)

COC(=O)c1ccccc1O
inactive: OR13C2 (Homo sapiens) | OR13C3 (Homo sapiens) | OR13C4 (Homo sapiens) | OR13C8 (Homo sapiens) | OR13H1 (Homo sapiens)

COC(=O)c1ccccc1
inactive: OR13C3 (Homo sapiens) | OR13C4 (Homo sapiens) | OR13C8 (Homo sapiens) | OR13H1 (Homo sapiens)

CC(C)(O)CCCC1=CCC(C=O)CC1 (stereo not drawn)
inactive: OR13C2 (Homo sapiens) | OR13C4 (Homo sapiens)

CCCCCCCC=CC=O
inactive: OR13C2 (Homo sapiens) | OR13C3 (Homo sapiens) | OR13C4 (Homo sapiens) | OR13C8 (Homo sapiens) | OR13H1 (Homo sapiens)

CC(=O)C(C)=O
inactive: OR13C2 (Homo sapiens) | OR13C3 (Homo sapiens) | OR13C4 (Homo sapiens) | OR13C8 (Homo sapiens) | OR13H1 (Homo sapiens)

Sorted by heavy-atom count (rising): some entries from above.
COC(=O)c1ccccc1
inactive: OR13C3 (Homo sapiens) | OR13C4 (Homo sapiens) | OR13C8 (Homo sapiens) | OR13H1 (Homo sapiens)

CCCCCCCC=CC=O
inactive: OR13C2 (Homo sapiens) | OR13C3 (Homo sapiens) | OR13C4 (Homo sapiens) | OR13C8 (Homo sapiens) | OR13H1 (Homo sapiens)

CC(C)(O)CCCC1=CCC(C=O)CC1 (stereo not drawn)
inactive: OR13C2 (Homo sapiens) | OR13C4 (Homo sapiens)

(cont.)

CCCC(=O)O
inactive: OR13C2 (Homo sapiens) | OR13C3 (Homo sapiens) | OR13C4 (Homo sapiens) | OR13C8 (Homo sapiens) | OR13H1 (Homo sapiens)

O=C1CCCCC1
inactive: OR13C3 (Homo sapiens) | OR13C4 (Homo sapiens) | OR13C8 (Homo sapiens) | OR13H1 (Homo sapiens)

COc1cc(C=O)ccc1O
inactive: OR13C2 (Homo sapiens) | OR13C3 (Homo sapiens) | OR13C4 (Homo sapiens) | OR13C8 (Homo sapiens) | OR13H1 (Homo sapiens)

CCCCCCCCCCC=O
inactive: OR13C2 (Homo sapiens) | OR13C3 (Homo sapiens) | OR13C4 (Homo sapiens) | OR13C8 (Homo sapiens) | OR13H1 (Homo sapiens)

C=CCSCC=C
inactive: OR13C2 (Homo sapiens) | OR13C3 (Homo sapiens) | OR13C4 (Homo sapiens) | OR13C8 (Homo sapiens) | OR13H1 (Homo sapiens)
